{"source": "the supplement of paper PMC8728848", "experiment_in_all_cases": "glycan array binding signal (z-score within array); higher = stronger binding", "details_in_all_cases": "glycan notation: IUPAC condensed, linker removed", "key": {"[1]": {"target": "Neu5Ac(a2-8)Neu5Ac", "how_it_was_run": "(§1)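 Glycan array data came from 3228 arrays in the Consortium for Functional Glycomics database, and only arrays with an available protein sequence were kept. Glycan names were put into IUPAC-condensed notation, and columns mapping to the same glycan were averaged. The binding signal is a within-array Z-score, averaged across arrays of one protein sequence run at different concentrations or buffers and across linkers. A negative Z-score can be read as non-binding.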"}, "[2]": {"target": "Neu5Ac(a2-8)Neu5Ac(a2-3)Gal(b1-3)GalNAc(b1-4)[Neu5Ac(a2-3)]Gal(b1-4)Glc", "how_it_was_run": "as §1"}, "[3]": {"target": "Neu5Ac(a2-8)Neu5Ac(a2-3)Gal(b1-3)GalNAc(b1-4)[Neu5Ac(a2-8)Neu5Ac(a2-3)]Gal(b1-4)Glc", "how_it_was_run": "as §1"}, "[4]": {"target": "Neu5Ac(a2-8)Neu5Ac(a2-3)Gal(b1-4)Glc", "how_it_was_run": "as §1"}, "[5]": {"target": "Neu5Ac(a2-8)Neu5Ac(a2-3)Gal(b1-4)GlcNAc", "how_it_was_run": "as §1"}, "[6]": {"target": "Neu5Ac(a2-8)Neu5Ac(a2-3)[Gal(b1-3)GalNAc(b1-4)]Gal(b1-4)Glc", "how_it_was_run": "as §1"}, "[7]": {"target": "Neu5Ac(a2-8)Neu5Ac(a2-3)[GalNAc(b1-4)]Gal(b1-4)Glc", "how_it_was_run": "as §1"}, "[8]": {"target": "Neu5Ac(a2-8)Neu5Ac(a2-8)Neu5Ac", "how_it_was_run": "as §1"}, "[9]": {"target": "Neu5Ac(a2-8)Neu5Ac(a2-8)Neu5Ac(a2-3)Gal(b1-4)Glc", "how_it_was_run": "as §1"}, "[10]": {"target": "Neu5Ac(a2-8)Neu5Ac(a2-8)Neu5Ac(a2-3)[Gal(b1-3)GalNAc(b1-4)]Gal(b1-4)Glc", "how_it_was_run": "as §1"}, "[11]": {"target": "Neu5Ac(a2-8)Neu5Ac(a2-8)Neu5Ac(a2-3)[GalNAc(b1-4)]Gal(b1-4)Glc", "how_it_was_run": "as §1"}, "[12]": {"target": "Neu5Ac(a2-8)Neu5Ac(a2-8)Neu5Ac(a2-8)Neu5Ac(a2-3)[GalNAc(b1-4)]Gal(b1-4)Glc", "how_it_was_run": "as §1"}, "[13]": {"target": "Neu5Ac(a2-8)Neu5Gc(a2-3)Gal(b1-4)GlcNAc", "how_it_was_run": "as §1"}, "[14]": {"target": "Neu5Ac(b2-6)Gal(b1-4)GlcNAc", "how_it_was_run": "as §1"}, "[15]": {"target": "Neu5Ac(b2-6)GalNAc", "how_it_was_run": "as §1"}, "[16]": {"target": "Neu5Ac9Ac(a2-3)Gal(b1-3)GlcNAc", "how_it_was_run": "as §1"}, "[17]": {"target": "Neu5Ac9Ac(a2-3)Gal(b1-4)GlcNAc", "how_it_was_run": "as §1"}, "[18]": {"target": "Neu5Ac9Ac(a2-6)Gal(b1-4)GlcNAc", "how_it_was_run": "as §1"}, "[19]": {"target": "Neu5Gc(a2-3)Gal(b1-3)GlcNAc", "how_it_was_run": "as §1"}, "[20]": {"target": "Neu5Gc(a2-3)Gal(b1-3)[Fuc(a1-4)]GlcNAc", "how_it_was_run": "as §1"}, "[21]": {"target": "Neu5Gc(a2-3)Gal(b1-4)Glc", "how_it_was_run": "as §1"}, "[22]": {"target": "Neu5Gc(a2-3)Gal(b1-4)GlcNAc", "how_it_was_run": "as §1"}, "[23]": {"target": "Neu5Gc(a2-3)Gal(b1-4)GlcNAc(b1-3)Gal(b1-4)GlcNAc(b1-2)Man(a1-3)[Neu5Gc(a2-3)Gal(b1-4)GlcNAc(b1-3)Gal(b1-4)GlcNAc(b1-2)Man(a1-6)]Man(b1-4)GlcNAc(b1-4)GlcNAc", "how_it_was_run": "as §1"}, "[24]": {"target": "Neu5Gc(a2-3)Gal(b1-4)[Fuc(a1-3)]GlcNAc", "how_it_was_run": "as §1"}, "[25]": {"target": "Neu5Gc(a2-6)Gal(b1-4)GlcNAc", "how_it_was_run": "as §1"}, "[26]": {"target": "Neu5Gc(a2-6)GalNAc", "how_it_was_run": "as §1"}, "[27]": {"target": "Neu5Gc(a2-8)Neu5Ac(a2-3)Gal(b1-4)GlcNAc", "how_it_was_run": "as §1"}, "[28]": {"target": "Neu5Gc(a2-8)Neu5Gc(a2-3)Gal(b1-4)GlcNAc", "how_it_was_run": "as §1"}, "[29]": {"target": "Neu5Gc(a2-8)Neu5Gc(a2-3)Gal(b1-4)GlcNAc(b1-3)Gal(b1-4)GlcNAc", "how_it_was_run": "as §1"}, "[30]": {"target": "Neu5Gc(a2-8)Neu5Gc(a2-6)Gal(b1-4)GlcNAc", "how_it_was_run": "as §1"}, "[31]": {"target": "Neu5Gc(b2-6)Gal(b1-4)GlcNAc", "how_it_was_run": "as §1"}}, "note": "Some of the results follow.", "data": [{"binder": "PX15642A-pgi-501-20-501 (Parabacteroides gingivalis) (protein) CELDRDPEGKDFQQPYTSFVQTKQNRDGLYALLRNTENPRMHFYQELQSDMYCTTITDGNSLAPFVNWDLGILNDHGRADEDEVSGIAGYYFVYNRLNQQANAFVNNTEAALQNQVYKNSTEIANAKSFLAEGKVLQALAIWRLMDRFSFHESVTEVNSGAKDLGVILLKEYNPGYIGPRATKAQCYDYILSRLSEAIEVLPENRESVLYVSRDYAYALRARIYLALGEYGKAAADAKMVVDKYPLIGAADASEFENIYRSDANNPEIIFRGFASATLGSFTATTLNGAAPAGKDIKYNPSAVPFQWVVDLYENEDFRKSVYIAKVVKKDKGYLVNKFLEDKAYRDVQDKPNLKVGARYFSVAEVYLILVESALQTGDTPTAEKYLKALSKARGAEVSVVNMEALQAERTRELIGEGSRLRDMVRWSIPNNHDAFETQPGLEGFANTTPLKAQAPVGFYAYTWEFPQRDRQTNPQLIKNWPI", "values": [{"measurement": "glycan array binding signal (z-score)", "setting": "[1]", "result": -0.193}, {"measurement": "glycan array binding signal (z-score)", "setting": "[2]", "result": -0.631}, {"measurement": "glycan array binding signal (z-score)", "setting": "[3]", "result": 1.23}, {"measurement": "glycan array binding signal (z-score)", "setting": "[4]", "result": 0.138}, {"measurement": "glycan array binding signal (z-score)", "setting": "[5]", "result": 0.498}, {"measurement": "glycan array binding signal (z-score)", "setting": "[6]", "result": -0.008}, {"measurement": "glycan array binding signal (z-score)", "setting": "[7]", "result": -0.038}, {"measurement": "glycan array binding signal (z-score)", "setting": "[8]", "result": -0.6}, {"measurement": "glycan array binding signal (z-score)", "setting": "[9]", "result": -0.727}, {"measurement": "glycan array binding signal (z-score)", "setting": "[10]", "result": 1.75}, {"measurement": "glycan array binding signal (z-score)", "setting": "[11]", "result": 0.122}, {"measurement": "glycan array binding signal (z-score)", "setting": "[12]", "result": -0.359}, {"measurement": "glycan array binding signal (z-score)", "setting": "[13]", "result": 15.5}, {"measurement": "glycan array binding signal (z-score)", "setting": "[14]", "result": -0.299}, {"measurement": "glycan array binding signal (z-score)", "setting": "[15]", "result": -0.953}, {"measurement": "glycan array binding signal (z-score)", "setting": "[16]", "result": -0.475}, {"measurement": "glycan array binding signal (z-score)", "setting": "[17]", "result": -1.35}, {"measurement": "glycan array binding signal (z-score)", "setting": "[18]", "result": -0.226}, {"measurement": "glycan array binding signal (z-score)", "setting": "[19]", "result": -0.349}, {"measurement": "glycan array binding signal (z-score)", "setting": "[20]", "result": -0.342}, {"measurement": "glycan array binding signal (z-score)", "setting": "[21]", "result": -0.465}, {"measurement": "glycan array binding signal (z-score)", "setting": "[22]", "result": -0.856}, {"measurement": "glycan array binding signal (z-score)", "setting": "[23]", "result": 0.077}, {"measurement": "glycan array binding signal (z-score)", "setting": "[24]", "result": -0.476}, {"measurement": "glycan array binding signal (z-score)", "setting": "[25]", "result": -1.13}, {"measurement": "glycan array binding signal (z-score)", "setting": "[26]", "result": -0.199}, {"measurement": "glycan array binding signal (z-score)", "setting": "[27]", "result": -0.384}, {"measurement": "glycan array binding signal (z-score)", "setting": "[28]", "result": -0.59}, {"measurement": "glycan array binding signal (z-score)", "setting": "[29]", "result": -0.437}, {"measurement": "glycan array binding signal (z-score)", "setting": "[30]", "result": -0.753}, {"measurement": "glycan array binding signal (z-score)", "setting": "[31]", "result": -0.608}]}]}
